Assay results reported in publication PMC9834662.
No constants are given. Whether binding was seen depends on the method and setting. Binding seen in cells or lysates may run through a third protein. Some binding calls cover weakened binding; strength is not graded here.

Protein sequences, listed by entry. Tags and fused reporters are not part of them.
UniProt P15172: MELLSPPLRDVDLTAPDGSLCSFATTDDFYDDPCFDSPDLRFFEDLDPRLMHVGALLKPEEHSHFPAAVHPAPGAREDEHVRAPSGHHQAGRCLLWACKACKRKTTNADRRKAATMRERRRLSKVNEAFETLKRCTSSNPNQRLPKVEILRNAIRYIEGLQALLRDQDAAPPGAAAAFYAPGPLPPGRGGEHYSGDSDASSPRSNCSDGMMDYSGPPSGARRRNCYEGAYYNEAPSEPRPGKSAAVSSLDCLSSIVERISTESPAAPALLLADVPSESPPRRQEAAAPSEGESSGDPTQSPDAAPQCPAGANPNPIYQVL
UniProt P97801: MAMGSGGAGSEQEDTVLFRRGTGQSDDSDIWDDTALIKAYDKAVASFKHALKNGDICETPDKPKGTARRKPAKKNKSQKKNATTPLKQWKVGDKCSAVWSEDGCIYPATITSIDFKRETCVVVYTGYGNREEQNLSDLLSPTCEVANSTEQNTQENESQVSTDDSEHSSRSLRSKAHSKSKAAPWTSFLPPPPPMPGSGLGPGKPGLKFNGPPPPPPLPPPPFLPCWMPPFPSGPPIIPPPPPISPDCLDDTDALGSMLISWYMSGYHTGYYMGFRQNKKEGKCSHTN
UniProt P10085: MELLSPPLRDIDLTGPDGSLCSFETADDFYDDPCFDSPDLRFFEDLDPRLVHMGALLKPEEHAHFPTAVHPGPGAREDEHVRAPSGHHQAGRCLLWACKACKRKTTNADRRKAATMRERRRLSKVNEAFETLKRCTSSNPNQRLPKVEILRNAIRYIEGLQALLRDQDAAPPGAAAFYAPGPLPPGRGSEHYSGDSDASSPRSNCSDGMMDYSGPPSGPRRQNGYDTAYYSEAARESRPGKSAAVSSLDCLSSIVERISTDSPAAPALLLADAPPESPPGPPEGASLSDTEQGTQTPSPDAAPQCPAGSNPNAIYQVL
UniProt Q16637: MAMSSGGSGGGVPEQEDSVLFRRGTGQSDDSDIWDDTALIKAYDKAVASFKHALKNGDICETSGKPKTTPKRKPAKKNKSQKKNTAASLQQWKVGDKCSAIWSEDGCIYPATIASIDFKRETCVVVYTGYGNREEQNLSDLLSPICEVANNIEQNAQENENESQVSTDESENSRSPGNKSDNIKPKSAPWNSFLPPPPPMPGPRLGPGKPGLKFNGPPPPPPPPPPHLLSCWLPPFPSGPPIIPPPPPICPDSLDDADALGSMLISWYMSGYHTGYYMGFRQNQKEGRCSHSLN

Columns and labels:
[1] = target: Flag-tagged MYOD1 (human) (UniProt P15172); assay: co-IP; Flag-MYOD1 and His-SMN transiently expressed in HEK293 cells; IP with Dynabeads, immunoblot
[2] = target: survival motor neuron protein (SMN), mouse, endogenous in C2C12 cells (mouse (endogenous in C2C12)) (UniProt P97801); assay: co-IP; C2C12 cells, day 3 of differentiation; sonicated lysate in IP buffer (10 mM Tris-HCl pH 7.8, 1.0% NP-40, 15 mM NaCl); primary antibody on Dynabeads, 4°C overnight; immunoblot
[3] = target: myoblast determination protein 1 (MYOD1) in B7-M iPSC-derived myogenic cells (human (human iPSC-derived cells; species of the transgene not stated)) (UniProt P15172); assay: co-IP; B7-M iPSC-derived myogenic cells, day 3; sonicated lysate in IP buffer (10 mM Tris-HCl pH 7.8, 1.0% NP-40, 15 mM NaCl); primary antibody on Dynabeads, 4°C overnight; immunoblot
[4] = target: myoblast determination protein 1 (MyoD1), mouse, endogenous in C2C12 cells (mouse (endogenous in C2C12)) (UniProt P10085); assay: co-IP; C2C12 cells, day 3 of differentiation; sonicated lysate in IP buffer (10 mM Tris-HCl pH 7.8, 1.0% NP-40, 15 mM NaCl); primary antibody on Dynabeads, 4°C overnight; immunoblot

For “His-tagged SMN (from UniProt Q16637 1-294)”, the binding [1] was “binds”.
In the case of “myoblast determination protein 1 (MyoD1), mouse, endogenous in C2C12 cells (from UniProt P10085 1-318)”, the binding [2] is reported as “binds”.
In the case of “survival motor neuron protein (SMN), human, endogenous in B7-M iPSC-derived myogenic cells (from UniProt Q16637 1-294)”, the binding [3] is reported as “binds”.
With “survival motor neuron protein (SMN), mouse, endogenous in C2C12 cells (from UniProt P97801 1-288)” the binding [4] was “binds”.
